Out of some 320,000 compounds screened, about 22,000 (6.9%) were called active. This list was built around the results that the source calls inconclusive (neither active nor inactive); the mix of calls is not that of the screen. The call rests on the fitted dose curve; in most records, active means well fitted inhibition curve with a large enough effect; inconclusive means small, poorly fitted or top-dose-only effect, or another doubt; inactive means no such curve, though single readings can be large or run the other way. Where the call is inconclusive, the potency comes from a doubtful curve fit.
Assay: Primary qHTS for delayed death inhibitors of the malarial parasite plastid, 96 hour incubation
Conditions: P. falciparum luciferase reporter growth; series mostly up to 28.7 µM
In short: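 96 h incubation, 37 C, 5% CO2, of luciferase-reporter P. falciparum-infected RBCs (2% hematocrit, 0.05% parasitemia final) with test compounds; endpoint luminescence.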
Potency means the concentration at half of the fitted maximal effect.

Structure (SMILES)	Potency
Cc1ccc(CNC(=O)CSc2nc3ccsc3c(=O)n2NC(=O)c2ccccc2)cc1	inactive
O=C(NC1CCN(C(=S)NCc2ccco2)CC1)C1CCCCC1	inactive
CCOC(=O)c1c(C)n(C)c2ccc(OCC(O)CN3CCC(C)CC3)cc12 (stereo not given)	inconclusive: 18.5 µM [inhibitor, single point]
COCCN(Cc1cc2ccc(C)cc2[nH]c1=O)S(=O)(=O)c1ccccc1	inconclusive: 18.5 µM [inhibitor, single point]
CC(C)c1c(C(=O)N/N=C2\CCc3ccccc32)nnn1-c1nonc1N	inconclusive: 18.5 µM [inhibitor, single point]
CC(C)n1nc(C(=O)Oc2ccc(Cl)cc2)c2ccccc2c1=O	inconclusive: 18.5 µM [inhibitor, single point]
CCCC(=O)NCCSC	inactive
CC1CC2(CCCC2)N(C(=O)N(C)C)c2ccc(F)cc21 (stereo not given)	inactive
COc1ccc(CCNC(=O)CCn2c(=O)c3ccccc3n(CC(=O)NCC3CCCO3)c2=O)cc1OC (stereo not given)	inconclusive: 4.15 µM [inhibitor, partial curve, poor fit]
Fc1ccc(-c2cnn3c(-c4cccs4)ccnc23)cc1	inactive
N#CCC(=O)Nc1ccc(C(=O)OCC(=O)Nc2ccccc2Sc2ccccc2)cc1	inconclusive: 16.5 µM [inhibitor, partial curve, poor fit]
CCNc1nc(Oc2ccc(=O)[nH]n2)nc(N2CCOCC2)n1	inactive
CC(C(=O)Nc1ccc2c(c1)OCO2)N1CCC(N2CCCCC2)CC1 (stereo not given)	inactive
COc1ccc(-c2nn(-c3ccccc3)cc2/C=C\C(=O)N2CCOCC2)cc1[N+](=O)[O-]	inconclusive: 2.08 µM [inhibitor, full curve, poor fit]
NS(=O)(=O)c1ccc(NC(=S)N2CCN(Cc3ccc(Cl)c(Cl)c3)CC2)cc1	inconclusive: 13.1 µM [inhibitor, single point]
CO/N=C(\N)c1ccc([N+](=O)[O-])cc1	inconclusive: 16.5 µM [inhibitor, single point]
Cc1cccc(NC(=O)COc2cccc3c2CCN(C)C3=O)c1	inconclusive: 1.31 µM [inhibitor, full curve, poor fit]
Cc1cc(C)n2nc(-c3cnn(C)c3C(F)(F)F)c(Cl)c2n1	inconclusive: 9.28 µM [inhibitor, single point]
COCCn1c(C)cc(C(=O)COC(=O)c2ccc[nH]c2=O)c1C	inactive
CCOC(=O)c1cc(C#N)c(Oc2ccccc2OC)nc1-c1ccccc1	inconclusive: 11.7 µM [inhibitor, single point]
CCOC(=O)Cc1csc(NC(=O)COc2ccc3ccccc3c2)n1	inconclusive: 11.7 µM [inhibitor, single point]
Cc1ccccc1C1=NC(C(F)(F)F)(C(F)(F)F)c2c(n(C)c(=O)n(C)c2=O)N1	inconclusive: 5.22 µM [inhibitor, partial curve, poor fit]
Cc1ccc(C)c(NC2=NS(=O)(=O)c3ccccc32)c1	inactive
Cc1ccc2nc(-c3ccc(S(=O)(=O)N4CCCCC4)cc3)cn2c1	inactive

Structure (SMILES)	Potency
COC(=O)CC1Nc2ccccc2SC1=O (stereo not given)	inconclusive: 11.7 µM [inhibitor, single point]
Cc1ccc(OC(C)C(=O)Nc2ccc(S(=O)(=O)Nc3nccs3)cc2)cc1 (stereo not given)	inconclusive: 7.38 µM [inhibitor, partial curve]
CCC1=C(OC(=O)N(CC)CC)N2C(=O)OC(=NCCc3c[nH]c4ccccc34)[C@]2(Cc2ccccc2)[C@H]2C1=CC[C@H]1C(=O)N(CC(=O)OC)C(=O)[C@H]12	active: 13.1 µM
CCc1ccc(C2C(C#N)=C(N)SC(N)=C2C#N)cc1	inactive
COc1cccc(NC(=O)CN(C)C(=O)c2ccc(NS(=O)(=O)c3ccc(F)cc3)cc2)c1	inconclusive: 18.5 µM [inhibitor, single point]
CC(=O)N1CCC(C(=O)OCc2ccc(Cl)cc2)(c2ccccc2)CC1	inactive
O=c1c2ccccc2nc(-c2ccco2)n1-c1nccs1	inconclusive: 18.5 µM [inhibitor, single point]
COc1ccc(CN2CCN(CC(=O)Nc3ccccc3C(=O)NC3CC3)CC2)cc1F	inconclusive: 11.7 µM [inhibitor, single point]
Cc1nc2ccc(NC(=S)N3CCN(c4ccccn4)CC3)cc2nc1C	inconclusive: 18.5 µM [inhibitor, partial curve, poor fit]
CCOc1ccccc1CN1CCN(Cc2ccc3cccc(OC)c3n2)CC1CCO (stereo not given)	inconclusive: 11.7 µM [inhibitor, single point]
CCC1=Nc2cc(C(=O)NCCN3CCOCC3)ccc2Sc2ccc(C)cc21	inactive
Cc1nc2c(-c3ccc(F)cc3)c(C)nn2c(C)c1CCC(=O)N1CCN(c2ccccn2)CC1	active: 7.38 µM
N#CC1=C2N=C(N)c3ccccc3N2C2=C(C(=O)CCC2)C1c1ccc(F)cc1 (stereo not given)	inconclusive: 10.4 µM [inhibitor, single point]
Cc1ccccc1C(=O)N1CCN(C(c2ccccc2)c2ccccc2)CC1	active: 5.86 µM
CCOc1ccc(/C=C/C(=O)N2CCOCC2)cc1OC	inconclusive: 8.28 µM [inhibitor, single point]
CC(C)(C)c1csc(SCC(=O)Nc2ccc(Cl)cn2)n1	inconclusive: 9.28 µM [inhibitor, single point]
CN1/C(=C/C=C(/C#N)C(N)=O)C(C)(C)c2ccccc21	inconclusive: 18.5 µM [inhibitor, partial curve, poor fit]
O=c1c2ccccc2oc2cc(OCc3cccc(F)c3)cc(O)c12	inactive
Cc1cccc2cc(COC(=O)c3ccco3)c(=O)[nH]c12	inconclusive: 4.15 µM [inhibitor, partial curve]
O=C(COc1ccc(/C=N/NC(=O)CSCc2ccc([N+](=O)[O-])cc2)cc1)NCc1ccco1	inconclusive: 18.5 µM [inhibitor, single point]
Cc1cc(S(=O)(=O)NCC(c2ccc(F)cc2)N2CCN(C)CC2)ccc1F (stereo not given)	inconclusive: 18.5 µM [inhibitor, single point]
COc1ccc(-n2nc(C(=O)NCc3cc(OC)ccc3OC)c3c4ccccc4n(C)c3c2=O)cc1	inconclusive: 18.5 µM [inhibitor, single point]
O=C(N/N=C/C1C(c2ccccc2)C1(Cl)Cl)c1cccc(Cl)c1 (stereo not given)	inactive
COc1ccc(C(=O)NN=C2CCCC2)cc1	active: 9.28 µM

A second format for part of the listing above:

| Structure (SMILES) | Potency |
| --- | --- |
| O=c1c2ccccc2nc(-c2ccco2)n1-c1nccs1 | inconclusive: 18.5 µM [inhibitor, single point] |
| COc1ccc(CN2CCN(CC(=O)Nc3ccccc3C(=O)NC3CC3)CC2)cc1F | inconclusive: 11.7 µM [inhibitor, single point] |
| Cc1nc2ccc(NC(=S)N3CCN(c4ccccn4)CC3)cc2nc1C | inconclusive: 18.5 µM [inhibitor, partial curve, poor fit] |
| CCOc1ccccc1CN1CCN(Cc2ccc3cccc(OC)c3n2)CC1CCO (stereo not given) | inconclusive: 11.7 µM [inhibitor, single point] |
| CCC1=Nc2cc(C(=O)NCCN3CCOCC3)ccc2Sc2ccc(C)cc21 | inactive |

Remaining list, next part:

Structure (SMILES)	Potency
O=C(NCc1ccc(F)c(F)c1)C1CCC(=O)N(CCc2ccccc2)C1 (stereo not given)	inconclusive: 9.28 µM [inhibitor, partial curve, poor fit]
O=C(c1n[nH]c2ccccc12)N1CCN(S(=O)(=O)c2ccc(Cl)cc2)CC1	inconclusive: 4.65 µM [inhibitor, partial curve, poor fit]
C/C(N)=C(/C#N)C(=O)CSc1nnc(-c2ccc(OC(F)F)cc2)o1	inconclusive: 9.28 µM [inhibitor, single point]
CCCC(=O)Nc1ccc2c(c1)Cc1ccccc1-2	inconclusive: 5.86 µM [inhibitor, partial curve, poor fit]
S=C(Nc1ccccc1Cl)N(Cc1ccccc1)Cc1ccccn1	active: 1.04 µM
O=C(NCCc1nnc2ccc(SCC(=O)N3CCOCC3)nn12)c1ccccc1	inactive
COc1ccc(-n2c(=S)[nH]c3sc4c(c3c2=O)CCN(C)C4)cc1	inconclusive: 18.5 µM [inhibitor, single point]
CCC(C)(C)c1ccc(Oc2cccc(C(=O)O)c2)cc1	inactive
COc1ccc(/C=C2\SC(=N)N(c3nccs3)C2=O)cc1OC	inconclusive: 1.31 µM [inhibitor, full curve, poor fit]
CCOc1ccc(NC(=O)CC)cc1	inactive
CN(C)S(=O)(=O)c1cccc(C(=O)NC2CCSc3ccccc32)c1 (stereo not given)	active: 11.7 µM
Cc1ccc(S(=O)(=O)NCCCCCC(=O)Nc2nccs2)cc1	inactive
CC(C)C1NC2(C(=O)c3ccccc3C2=O)C2C(=O)N(c3ccc(F)cc3)C(=O)C12 (stereo not given)	inconclusive: 0.0738 µM [inhibitor, full curve, poor fit]
Cc1cc(C)c(OCC(=O)Nc2ccc(NC(=O)c3ccco3)cc2)c([N+](=O)[O-])c1	inconclusive: 18.5 µM [inhibitor, single point]
CC(C)OC12Oc3ccccc3C=C1N1CCC2CC1 (stereo not given)	inconclusive: 11.7 µM [inhibitor, single point]
O=C(COc1ccc2c(-c3ccccc3)cc(=O)oc2c1)NCCCn1ccnc1	inactive
COc1ccc(NC(=O)COC(=O)c2c(C)noc2C)c(OC)c1	inconclusive: 16.5 µM [inhibitor, single point]
O=C(COC(=O)C1(c2ccc(F)cc2)CCCC1)N1CCc2ccccc21	inconclusive: 13.1 µM [inhibitor, single point]
Clc1cccc(CN2CCCCC2c2cccnc2)c1 (stereo not given)	inconclusive: 1.47 µM [inhibitor, partial curve, poor fit]
O=S(=O)(Cc1ccc(Cl)cc1)NCc1cccnc1	inactive
N#Cc1ccccc1Cn1cc(C(=O)c2ccco2)c2ccccc21	inconclusive: 10.4 µM [inhibitor, single point]
CCOC(=O)CNC(=O)CSc1ccc2nnc(-c3ccc(F)cc3)n2n1	inconclusive: 2.94 µM [inhibitor, partial curve, poor fit]
